± gives the standard deviation of the averaged measurements. The list shows a part of the results, in another mix than the full data.
Compound: Nc1ncnc2c1ncn2[C@@H]1O[C@H](COP(=O)(O)OP(=O)(O)OP(=O)(O)O)[C@@H](O)[C@H]1O [adenosine triphosphate]
Assay: NP40-soluble protein abundance relative to vehicle (solubility fold change) (ratio); higher = more soluble protein in presence of ATP
In short: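 Jurkat crude lysate (Dounce-homogenised) was treated with eight concentrations from 0.1 to 10 mM for 10 min at room temperature, then 3 min at 37 °C. It was solubilised with 0.8% NP40 and benzonase (60 min, 4 °C) and ultracentrifuged, and the supernatant was TMT-labelled for LC-MS/MS. Intensities were vsn-normalised, and the value is the fold change against the NP40-processed vehicle per replicate, from three independent experiments.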

Target	NP40-soluble protein abundance (concentration: 1mM)	NP40-soluble protein abundance (concentration: 2mM)	NP40-soluble protein abundance (concentration: 4mM)	NP40-soluble protein abundance (concentration: 6mM)	NP40-soluble protein abundance (concentration: 8mM)	NP40-soluble protein abundance (concentration: 10mM)
A8MUH2 and related entries (UniProt P18859)	0.851 ± 0.14	0.744 ± 0.083	0.79 ± 0.1	0.848 ± 0.18	0.771 ± 0.13	0.782 ± 0.15
D6REX3 and related entries (UniProt O94979)	0.962 ± 0.027	0.942 ± 0.016	0.939 ± 0.023	0.941 ± 0.041	0.949 ± 0.023	0.945 ± 0.039
B1AM27 and related entries (UniProt O14795)	1.02 ± 0.045	1.03 ± 0.09	1.03 ± 0.048	1.07 ± 0.12	1.05 ± 0.043	1.03 ± 0.099
D6RAM1 and related entries (UniProt P31943)	1.04 ± 0.015	1.03 ± 0.015	1.03 ± 0.021	1.03 ± 0.034	1.03 ± 0.025	1.02 ± 0.031
C9JLV4 and related entries (UniProt O14727)	1.05 ± 0.083	1.05 ± 0.05	1.09 ± 0.072	0.986 ± 0.085	1.06 ± 0.051	1.02 ± 0.02
B1AJU2 and related entries (UniProt Q9Y228)	0.95 ± 0.12	0.9 ± 0.094	0.937 ± 0.084	0.958 ± 0.17	0.963 ± 0.068	0.874 ± 0.15
B7Z6D5 and related entries (UniProt Q96GQ7)	1.08 ± 0.053	1.16 ± 0.06	1.24 ± 0.087	1.26 ± 0.057	1.31 ± 0.09	1.4 ± 0.1
B5MDF5 and related entries (UniProt P62826)	1.01 ± 0.034	0.983 ± 0.034	0.949 ± 0.025	0.967 ± 0.06	0.934 ± 0.034	0.957 ± 0.053
UNC119B (UniProt A6NIH7)	1.03 ± 0.056	1.03 ± 0.055	1.02 ± 0.096	1.02 ± 0.095	0.985 ± 0.052	0.999 ± 0.059
A6NHG4 and related entries (UniProt P30046+B5MC82+A6NHG4)	0.9318 ± 0.0072	1.031 ± 0.0049	0.9352 ± 0.0075	0.961 ± 0.07	0.9531 ± 0.0048	0.99438 ± 6.3e-05
UniProt A4D1P6 and related entries	0.983 ± 0.042	0.926 ± 0.054	0.978 ± 0.056	0.947 ± 0.078	0.915 ± 0.037	0.971 ± 0.078
B9A018 and related entries (UniProt Q53GS9)	1.12 ± 0.12	1.16 ± 0.067	1.18 ± 0.052	1.18 ± 0.11	1.31 ± 0.029	1.31 ± 0.063
B5MCU0 and related entries (UniProt Q9Y2K5)	0.99 ± 0.059	1.01 ± 0.041	1.14 ± 0.018	1.14 ± 0.11	1.04 ± 0.03	1.01 ± 0.037
UniProt B7ZLF3	1.02 ± 0.059	1.02 ± 0.074	1.12 ± 0.042	1.08 ± 0.047	1.09 ± 0.08	1.1 ± 0.069
A0A0G2JNU3|A6H8Y1 and related entries (UniProt A6H8Y1)	0.983 ± 0.14	1.12 ± 0.05	0.948 ± 0.072	0.976 ± 0.017	0.985 ± 0.093	0.987 ± 0.12
C9J6P4 and related entries (UniProt Q7Z2W4)	1.16 ± 0.013	1.151 ± 0.0077	1.166 ± 0.0062	1.167 ± 0.011	1.18 ± 0.032	1.16 ± 0.03
UniProt A2RRP1 and related entries	1.04 ± 0.085	1 ± 0.061	1 ± 0.044	0.945 ± 0.06	1.02 ± 0.015	0.997 ± 0.061
C9J2Q2 and related entries (UniProt Q8N5M1)	1.03 ± 0.13	1.01 ± 0.11	0.996 ± 0.14	0.901 ± 0.16	1.11 ± 0.11	1.03 ± 0.091
A8MTY9 and related entries (UniProt O14972)	1.03 ± 0.024	1.06 ± 0.035	1.09 ± 0.029	1.04 ± 0.031	1.07 ± 0.015	1.05 ± 0.059
C9JQV3 and related entries (UniProt Q8N1F8)	0.996 ± 0.045	1.03 ± 0.038	1.04 ± 0.013	0.982 ± 0.04	0.994 ± 0.097	1.01 ± 0.026
B4DKD5 and related entries (UniProt Q7Z6M4)	0.89 ± 0.0077	0.995 ± 0.046	0.994 ± 0.022	1 ± 0.077	0.957 ± 0.087	1.014 ± 0.0019
A2A2V1 and related entries (UniProt P04156+A2A2V1)	1.07 ± 0.066	1 ± 0.091	1.04 ± 0.041	0.973 ± 0.015	0.947 ± 0.021	0.907 ± 0.057
C9J2Y9 and related entries (UniProt P30876)	1.08 ± 0.075	1.05 ± 0.038	1.06 ± 0.02	1.02 ± 0.044	1.1 ± 0.028	1.07 ± 0.059
B4DK77 and related entries (UniProt Q9H6K4)	1.07 ± 0.15	0.9506 ± 0.0033	1.14 ± 0.078	0.9515 ± 0.0055	1.04 ± 0.15	0.936 ± 0.11
C9J0Q5 and related entries (UniProt Q9Y618)	0.988 ± 0.072	0.989 ± 0.06	1.03 ± 0.076	1.06 ± 0.11	1.01 ± 0.066	1.05 ± 0.079
A0A0G2JK44|P25440 and related entries (UniProt P25440)	0.937 ± 0.048	0.994 ± 0.049	1.03 ± 0.064	1.09 ± 0.059	1.09 ± 0.049	1.14 ± 0.025
B3KS98 and related entries (UniProt O15372)	0.993 ± 0.041	1.01 ± 0.075	1.08 ± 0.071	1.25 ± 0.13	1.33 ± 0.094	1.48 ± 0.13
B2R5W2 and related entries (UniProt P07910)	0.981 ± 0.087	0.926 ± 0.14	0.899 ± 0.1	0.987 ± 0.16	0.896 ± 0.098	0.899 ± 0.1
B1AKC9 and related entries (UniProt P29323)	1.21 ± 0.21	1.14 ± 0.23	1.11 ± 0.33	0.996 ± 0.18	1.03 ± 0.13	1.06 ± 0.15
B7Z2R7 and related entries (UniProt Q5T8D3)	0.965 ± 0.042	1.01 ± 0.026	0.9823 ± 0.0063	1.03 ± 0.023	0.967 ± 0.018	0.983 ± 0.0094

As entered above.
Under NP40-soluble protein abundance (concentration: 10mM), C9JQV3 and related entries (UniProt Q8N1F8) has 1.01 ± 0.026
Under NP40-soluble protein abundance (concentration: 8mM), UniProt B7ZLF3 has 1.09 ± 0.08

Reference: the supplement of paper PMC6411743
